Assay results reported in article PMC4842972, “Identification of residues crucial for the interaction between human neuroglobin and the α-subunit of heterotrimeric Gi protein” (Scientific Reports, 2016).
Where a chain is given by its changes, count along the chain named. No constants are given. Whether binding was seen depends on the method and setting. Sequences can lack the tags named with a protein.

The chains behind the UniProt entries cited, without tags or fusion partners. Where a name states a change or a piece, a line headed by the entry shows the natural chain unless it says otherwise. A line that says so, or that is headed by a name, gives the form on record, which may keep a tag or linker. Residues count along the entry.
human WT truncated Gαi1 protein (residues 26-354), GDP-bound form (P63096, residues 26-354): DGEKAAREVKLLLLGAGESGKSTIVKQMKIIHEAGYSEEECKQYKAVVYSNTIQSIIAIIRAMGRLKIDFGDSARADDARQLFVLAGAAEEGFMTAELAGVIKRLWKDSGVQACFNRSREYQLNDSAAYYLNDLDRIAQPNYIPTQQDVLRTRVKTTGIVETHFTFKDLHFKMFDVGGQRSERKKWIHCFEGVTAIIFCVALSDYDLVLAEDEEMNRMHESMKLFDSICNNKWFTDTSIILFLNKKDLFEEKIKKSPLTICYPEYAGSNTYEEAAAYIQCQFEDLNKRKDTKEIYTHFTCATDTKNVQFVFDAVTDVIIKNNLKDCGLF
human truncated Gαi1 R208A, K209A, K210A triple mutant, GDP-bound form (P63096, form named): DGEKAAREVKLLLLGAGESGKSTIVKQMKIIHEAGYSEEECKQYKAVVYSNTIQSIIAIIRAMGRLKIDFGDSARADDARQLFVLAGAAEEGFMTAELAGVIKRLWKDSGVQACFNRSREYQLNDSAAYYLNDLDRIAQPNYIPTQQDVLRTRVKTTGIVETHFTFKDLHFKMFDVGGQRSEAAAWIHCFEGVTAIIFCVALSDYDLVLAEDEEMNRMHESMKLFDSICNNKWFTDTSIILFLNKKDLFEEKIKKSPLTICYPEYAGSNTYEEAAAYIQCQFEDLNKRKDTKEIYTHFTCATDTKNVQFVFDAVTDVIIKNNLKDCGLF
human truncated Gαi1 K70A single mutant, GDP-bound form (P63096, form named): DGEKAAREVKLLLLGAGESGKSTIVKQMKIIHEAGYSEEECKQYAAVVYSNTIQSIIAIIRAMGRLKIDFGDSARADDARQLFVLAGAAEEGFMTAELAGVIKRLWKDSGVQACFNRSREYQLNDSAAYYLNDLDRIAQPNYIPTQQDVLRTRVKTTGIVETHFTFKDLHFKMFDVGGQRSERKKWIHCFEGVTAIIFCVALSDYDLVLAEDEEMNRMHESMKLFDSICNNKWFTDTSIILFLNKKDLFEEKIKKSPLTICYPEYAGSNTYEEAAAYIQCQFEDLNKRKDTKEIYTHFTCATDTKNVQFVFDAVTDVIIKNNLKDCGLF
human truncated Gαi1 K46A single mutant, GDP-bound form (P63096, form named): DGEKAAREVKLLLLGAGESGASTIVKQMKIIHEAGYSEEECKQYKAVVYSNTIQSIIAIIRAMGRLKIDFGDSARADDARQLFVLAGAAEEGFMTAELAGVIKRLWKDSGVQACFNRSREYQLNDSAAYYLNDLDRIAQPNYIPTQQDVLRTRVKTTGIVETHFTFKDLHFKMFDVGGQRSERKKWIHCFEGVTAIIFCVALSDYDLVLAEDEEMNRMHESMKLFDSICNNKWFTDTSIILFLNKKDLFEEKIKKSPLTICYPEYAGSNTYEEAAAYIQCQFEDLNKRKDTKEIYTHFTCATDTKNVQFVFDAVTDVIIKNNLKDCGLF

Legend:
Assay in all cases: pull-down; GST-ferric Ngb (or GST alone) immobilised on glutathione-Sepharose 4B beads, incubated with truncated Gαi1; 10 mM HEPES, 150 mM NaCl, 10 mM MgCl2, 10 uM GDP, 0.1% Tween20, pH 7.4; 1 h at 4 °C; Western blot with anti-Gαi1 monoclonal antibody; both purified
[1] = molecular target: T1, GST-human ferric WT Ngb (neuroglobin) (human) (UniProt Q9NPG2)
T1 sequence: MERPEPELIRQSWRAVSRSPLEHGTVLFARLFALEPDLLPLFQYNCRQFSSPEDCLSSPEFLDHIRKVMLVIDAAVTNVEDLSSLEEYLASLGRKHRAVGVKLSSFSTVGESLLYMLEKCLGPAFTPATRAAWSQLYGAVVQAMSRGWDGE

[2] = molecular target: T2, GST-human ferric E118Q Ngb mutant (human) (UniProt Q9NPG2)
T2 sequence: T1 sequence with E118Q

[3] = molecular target: T3, GST-human ferric E151N Ngb mutant (human) (UniProt Q9NPG2)
T3 sequence: T1 sequence with E151N

[4] = molecular target: T4, GST-human ferric E53Q Ngb mutant (human) (UniProt Q9NPG2)
T4 sequence: T1 sequence with E53Q

[5] = molecular target: T5, GST-human ferric E60Q Ngb mutant (human) (UniProt Q9NPG2)
T5 sequence: T1 sequence with E60Q

[6] = molecular target: T6, GST-human ferric R97Q Ngb mutant (human) (UniProt Q9NPG2)
T6 sequence: T1 sequence with R97Q

## human truncated Gαi1 R208A, K209A, K210A triple mutant, GDP-bound form (from UniProt P63096 26-354) (domain or fragment)
[1]
  binding: no binding

## human truncated Gαi1 K70A single mutant, GDP-bound form (from UniProt P63096 26-354) (domain or fragment)
[1]
  binding: no binding

## human truncated Gαi1 K46A single mutant, GDP-bound form (from UniProt P63096 26-354) (domain or fragment)
[1]
  binding: no binding

## human WT truncated Gαi1 protein (residues 26-354), GDP-bound form (from UniProt P63096 26-354) (domain or fragment)
[2]
  binding: no binding
[3]
  binding: no binding
[4]
  binding: no binding
[5]
  binding: no binding
[6]
  binding: no binding
